Data reported in PMC11267308.
Results are given in words; binding and its absence hold for the method and conditions named. Binding seen in cells or lysates may run through a third protein. Some binding calls cover weakened binding; strength is not graded here.

By UniProt entry, the sequences of proteins in these tests, tags left out.
UniProt P15311: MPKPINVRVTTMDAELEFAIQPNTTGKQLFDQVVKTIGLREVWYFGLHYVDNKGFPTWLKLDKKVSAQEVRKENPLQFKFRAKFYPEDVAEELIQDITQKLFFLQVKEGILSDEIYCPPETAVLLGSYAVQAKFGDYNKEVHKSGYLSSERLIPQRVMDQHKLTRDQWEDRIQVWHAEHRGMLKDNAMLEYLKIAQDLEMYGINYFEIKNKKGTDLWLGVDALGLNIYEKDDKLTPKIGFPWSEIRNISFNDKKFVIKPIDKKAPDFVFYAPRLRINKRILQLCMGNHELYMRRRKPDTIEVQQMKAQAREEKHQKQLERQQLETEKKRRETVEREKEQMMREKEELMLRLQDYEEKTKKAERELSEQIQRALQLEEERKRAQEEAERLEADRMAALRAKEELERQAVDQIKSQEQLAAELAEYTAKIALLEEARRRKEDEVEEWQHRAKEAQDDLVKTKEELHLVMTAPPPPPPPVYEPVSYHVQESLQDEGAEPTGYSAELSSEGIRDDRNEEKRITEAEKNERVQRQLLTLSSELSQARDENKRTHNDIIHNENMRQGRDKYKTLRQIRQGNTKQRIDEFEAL
UniProt P51617: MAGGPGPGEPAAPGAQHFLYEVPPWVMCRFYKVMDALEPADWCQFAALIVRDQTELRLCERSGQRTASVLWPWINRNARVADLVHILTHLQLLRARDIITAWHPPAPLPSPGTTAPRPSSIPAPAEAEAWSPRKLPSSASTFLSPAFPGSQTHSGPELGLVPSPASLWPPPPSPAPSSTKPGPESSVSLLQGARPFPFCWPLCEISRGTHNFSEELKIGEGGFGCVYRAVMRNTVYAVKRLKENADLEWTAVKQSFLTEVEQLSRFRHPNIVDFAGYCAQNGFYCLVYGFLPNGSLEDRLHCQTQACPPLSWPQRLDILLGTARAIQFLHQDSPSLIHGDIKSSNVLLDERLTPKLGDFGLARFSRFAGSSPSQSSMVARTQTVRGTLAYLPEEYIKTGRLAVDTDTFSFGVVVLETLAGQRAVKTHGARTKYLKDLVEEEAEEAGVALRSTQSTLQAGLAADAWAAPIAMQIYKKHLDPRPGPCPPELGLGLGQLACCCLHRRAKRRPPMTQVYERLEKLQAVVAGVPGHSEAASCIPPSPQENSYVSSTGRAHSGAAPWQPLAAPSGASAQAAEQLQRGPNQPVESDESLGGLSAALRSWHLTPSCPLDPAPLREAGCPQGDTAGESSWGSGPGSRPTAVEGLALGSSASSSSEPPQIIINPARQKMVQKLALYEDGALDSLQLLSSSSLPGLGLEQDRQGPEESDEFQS
UniProt Q99836: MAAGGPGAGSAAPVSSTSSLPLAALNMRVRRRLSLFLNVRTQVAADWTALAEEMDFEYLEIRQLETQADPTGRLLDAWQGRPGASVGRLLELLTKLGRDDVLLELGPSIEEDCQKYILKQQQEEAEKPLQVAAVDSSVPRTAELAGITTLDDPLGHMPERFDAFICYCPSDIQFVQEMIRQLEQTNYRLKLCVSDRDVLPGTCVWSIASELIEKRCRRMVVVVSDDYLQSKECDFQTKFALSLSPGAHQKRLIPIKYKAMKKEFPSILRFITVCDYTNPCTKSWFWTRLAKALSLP

Molecular target: Ezrin (human (endogenous in HK-2)) (UniProt P15311)
Test: co-IP; HK-2 cell lysate (IP lysis buffer with protease and phosphatase inhibitors); 2 µg antibody against the target protein overnight at 4 °C, Agarose A+G, washed thrice with PBS; cells in the presence or absence of LPS (10 µg/mL); IgG control

| binding | Substance |
| --- | --- |
| binds | IL-1R-associated kinase 1 (IRAK-1) (from UniProt P51617 1-712) |
| binds | myeloid differentiation factor 88 (MyD88) (from UniProt Q99836 1-296) |
